This is one part of the list. Small differences around the control level are noise.

Protein sequences, listed by entry. Tags and fused reporters are not part of them. Lines headed by an entry give the natural chain unless they say otherwise; changes in a name come on top.
UniProt P35244: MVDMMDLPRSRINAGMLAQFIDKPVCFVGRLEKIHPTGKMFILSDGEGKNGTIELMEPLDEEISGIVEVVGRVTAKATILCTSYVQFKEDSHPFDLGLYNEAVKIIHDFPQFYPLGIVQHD
UniProt P28370, whole entry: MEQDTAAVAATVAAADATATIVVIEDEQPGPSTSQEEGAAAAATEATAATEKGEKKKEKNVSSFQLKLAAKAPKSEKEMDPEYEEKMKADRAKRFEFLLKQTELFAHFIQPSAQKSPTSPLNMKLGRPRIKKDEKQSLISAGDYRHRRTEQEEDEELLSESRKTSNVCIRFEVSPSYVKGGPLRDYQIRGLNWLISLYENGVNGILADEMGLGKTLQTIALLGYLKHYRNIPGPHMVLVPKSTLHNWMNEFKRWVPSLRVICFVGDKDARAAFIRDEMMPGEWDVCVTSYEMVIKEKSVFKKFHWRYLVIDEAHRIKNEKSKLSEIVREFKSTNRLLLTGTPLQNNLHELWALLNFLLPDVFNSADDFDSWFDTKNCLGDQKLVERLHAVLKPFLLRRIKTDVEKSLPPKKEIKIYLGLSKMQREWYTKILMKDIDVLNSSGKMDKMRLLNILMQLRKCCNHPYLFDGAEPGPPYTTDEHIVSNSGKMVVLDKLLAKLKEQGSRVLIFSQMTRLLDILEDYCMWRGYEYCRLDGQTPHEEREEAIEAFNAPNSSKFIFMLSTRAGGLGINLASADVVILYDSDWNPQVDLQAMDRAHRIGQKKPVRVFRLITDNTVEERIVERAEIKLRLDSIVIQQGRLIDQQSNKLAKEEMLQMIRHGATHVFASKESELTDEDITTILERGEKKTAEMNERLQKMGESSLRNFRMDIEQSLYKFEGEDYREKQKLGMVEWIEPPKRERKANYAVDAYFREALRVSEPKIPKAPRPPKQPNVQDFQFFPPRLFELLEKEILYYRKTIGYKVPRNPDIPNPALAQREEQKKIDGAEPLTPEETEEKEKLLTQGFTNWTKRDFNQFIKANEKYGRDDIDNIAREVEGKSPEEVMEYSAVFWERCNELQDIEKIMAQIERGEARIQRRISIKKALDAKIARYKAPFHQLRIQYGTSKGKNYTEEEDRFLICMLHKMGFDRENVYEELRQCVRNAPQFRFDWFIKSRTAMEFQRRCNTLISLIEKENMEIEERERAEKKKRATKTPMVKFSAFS
UniProt P36575, whole entry: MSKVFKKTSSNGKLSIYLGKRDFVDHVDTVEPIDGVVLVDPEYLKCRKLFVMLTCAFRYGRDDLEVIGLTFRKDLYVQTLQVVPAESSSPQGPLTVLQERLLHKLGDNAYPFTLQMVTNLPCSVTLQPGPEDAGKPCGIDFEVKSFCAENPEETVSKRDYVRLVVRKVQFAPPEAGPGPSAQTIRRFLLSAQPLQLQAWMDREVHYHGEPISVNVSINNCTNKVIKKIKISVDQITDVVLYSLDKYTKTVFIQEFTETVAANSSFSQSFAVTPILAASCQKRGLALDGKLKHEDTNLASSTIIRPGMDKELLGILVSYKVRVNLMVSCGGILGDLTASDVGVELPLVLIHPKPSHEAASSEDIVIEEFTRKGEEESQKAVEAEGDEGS
UniProt P30519: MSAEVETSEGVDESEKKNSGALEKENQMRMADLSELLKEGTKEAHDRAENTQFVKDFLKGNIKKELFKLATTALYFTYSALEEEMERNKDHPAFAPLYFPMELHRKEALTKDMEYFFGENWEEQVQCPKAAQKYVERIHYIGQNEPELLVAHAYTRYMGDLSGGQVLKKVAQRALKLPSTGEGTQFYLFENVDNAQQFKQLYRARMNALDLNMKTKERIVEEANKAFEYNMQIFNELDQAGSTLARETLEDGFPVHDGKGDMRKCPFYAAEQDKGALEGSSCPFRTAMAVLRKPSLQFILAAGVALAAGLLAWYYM
UniProt P37108: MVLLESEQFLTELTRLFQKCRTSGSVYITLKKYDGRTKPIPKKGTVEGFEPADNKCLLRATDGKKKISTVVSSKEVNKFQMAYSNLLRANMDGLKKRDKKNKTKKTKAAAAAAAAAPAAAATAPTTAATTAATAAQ
UniProt P38646: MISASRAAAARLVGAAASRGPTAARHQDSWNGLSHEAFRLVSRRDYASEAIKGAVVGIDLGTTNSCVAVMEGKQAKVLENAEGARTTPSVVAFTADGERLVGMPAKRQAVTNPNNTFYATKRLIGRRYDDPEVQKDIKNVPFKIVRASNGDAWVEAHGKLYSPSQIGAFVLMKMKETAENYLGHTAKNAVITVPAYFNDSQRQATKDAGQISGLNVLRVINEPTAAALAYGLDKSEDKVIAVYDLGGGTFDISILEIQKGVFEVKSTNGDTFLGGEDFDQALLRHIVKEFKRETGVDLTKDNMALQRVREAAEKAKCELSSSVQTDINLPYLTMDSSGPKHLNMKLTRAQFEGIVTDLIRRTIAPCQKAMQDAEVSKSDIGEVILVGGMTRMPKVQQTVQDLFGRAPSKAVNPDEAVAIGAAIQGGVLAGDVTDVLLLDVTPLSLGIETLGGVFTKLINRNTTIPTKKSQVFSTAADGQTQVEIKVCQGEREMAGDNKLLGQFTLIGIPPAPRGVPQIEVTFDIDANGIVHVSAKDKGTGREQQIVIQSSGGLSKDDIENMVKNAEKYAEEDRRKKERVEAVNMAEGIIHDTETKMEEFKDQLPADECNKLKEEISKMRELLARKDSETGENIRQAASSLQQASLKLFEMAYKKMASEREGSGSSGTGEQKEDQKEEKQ
UniProt P42356, whole entry, looked up: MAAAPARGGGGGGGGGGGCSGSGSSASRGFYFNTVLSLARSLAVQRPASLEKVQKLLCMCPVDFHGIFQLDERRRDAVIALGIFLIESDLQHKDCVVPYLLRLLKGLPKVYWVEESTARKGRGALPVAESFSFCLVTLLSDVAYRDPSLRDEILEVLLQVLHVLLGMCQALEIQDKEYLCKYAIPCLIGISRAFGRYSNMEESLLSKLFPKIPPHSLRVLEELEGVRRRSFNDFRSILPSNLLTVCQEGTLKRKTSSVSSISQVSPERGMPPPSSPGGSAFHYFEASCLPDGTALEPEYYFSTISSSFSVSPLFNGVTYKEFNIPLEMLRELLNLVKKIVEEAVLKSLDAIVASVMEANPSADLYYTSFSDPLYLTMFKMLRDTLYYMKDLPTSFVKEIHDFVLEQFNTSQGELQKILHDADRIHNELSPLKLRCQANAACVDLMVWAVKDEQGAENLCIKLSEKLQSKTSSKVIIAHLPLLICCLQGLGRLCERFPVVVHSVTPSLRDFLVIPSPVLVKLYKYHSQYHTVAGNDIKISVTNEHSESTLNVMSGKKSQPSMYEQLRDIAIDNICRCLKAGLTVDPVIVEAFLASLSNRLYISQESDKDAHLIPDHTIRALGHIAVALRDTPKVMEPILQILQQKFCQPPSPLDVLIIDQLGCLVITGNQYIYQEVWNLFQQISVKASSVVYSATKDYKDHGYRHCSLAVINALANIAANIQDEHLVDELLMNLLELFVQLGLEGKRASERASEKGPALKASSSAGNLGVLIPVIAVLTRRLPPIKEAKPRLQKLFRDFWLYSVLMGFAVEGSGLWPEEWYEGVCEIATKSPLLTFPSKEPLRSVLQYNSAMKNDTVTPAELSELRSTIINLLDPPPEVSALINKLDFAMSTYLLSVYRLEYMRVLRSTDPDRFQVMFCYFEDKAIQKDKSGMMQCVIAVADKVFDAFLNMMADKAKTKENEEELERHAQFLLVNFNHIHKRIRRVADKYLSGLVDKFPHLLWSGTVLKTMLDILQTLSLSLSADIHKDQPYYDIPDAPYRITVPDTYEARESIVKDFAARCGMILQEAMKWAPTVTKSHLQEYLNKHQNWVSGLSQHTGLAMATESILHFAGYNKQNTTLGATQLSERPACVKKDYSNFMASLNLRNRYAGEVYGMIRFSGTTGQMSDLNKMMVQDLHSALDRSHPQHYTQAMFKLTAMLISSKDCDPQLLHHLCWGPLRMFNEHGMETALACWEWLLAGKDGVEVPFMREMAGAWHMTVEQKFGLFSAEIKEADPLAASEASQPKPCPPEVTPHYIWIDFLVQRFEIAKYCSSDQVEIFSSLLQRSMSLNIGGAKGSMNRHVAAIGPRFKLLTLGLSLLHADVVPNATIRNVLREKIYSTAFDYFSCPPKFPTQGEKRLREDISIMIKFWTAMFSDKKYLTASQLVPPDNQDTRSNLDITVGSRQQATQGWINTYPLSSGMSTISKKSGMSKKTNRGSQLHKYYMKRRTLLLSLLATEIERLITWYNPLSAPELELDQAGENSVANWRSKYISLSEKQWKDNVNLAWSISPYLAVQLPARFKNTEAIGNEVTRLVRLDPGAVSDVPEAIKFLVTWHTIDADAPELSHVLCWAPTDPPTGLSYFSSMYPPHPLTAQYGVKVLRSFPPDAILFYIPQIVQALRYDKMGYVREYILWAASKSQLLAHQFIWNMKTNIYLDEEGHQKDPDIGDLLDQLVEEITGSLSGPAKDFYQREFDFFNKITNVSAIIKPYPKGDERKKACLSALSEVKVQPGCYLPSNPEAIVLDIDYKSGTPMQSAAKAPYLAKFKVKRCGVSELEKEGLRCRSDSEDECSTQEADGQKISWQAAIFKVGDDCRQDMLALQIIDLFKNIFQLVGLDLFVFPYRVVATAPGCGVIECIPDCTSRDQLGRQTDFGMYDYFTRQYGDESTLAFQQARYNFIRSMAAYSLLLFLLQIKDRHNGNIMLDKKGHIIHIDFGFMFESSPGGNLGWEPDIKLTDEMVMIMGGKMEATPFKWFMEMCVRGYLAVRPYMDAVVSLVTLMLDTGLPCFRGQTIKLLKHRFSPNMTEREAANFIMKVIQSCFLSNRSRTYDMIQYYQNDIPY
UniProt P30038: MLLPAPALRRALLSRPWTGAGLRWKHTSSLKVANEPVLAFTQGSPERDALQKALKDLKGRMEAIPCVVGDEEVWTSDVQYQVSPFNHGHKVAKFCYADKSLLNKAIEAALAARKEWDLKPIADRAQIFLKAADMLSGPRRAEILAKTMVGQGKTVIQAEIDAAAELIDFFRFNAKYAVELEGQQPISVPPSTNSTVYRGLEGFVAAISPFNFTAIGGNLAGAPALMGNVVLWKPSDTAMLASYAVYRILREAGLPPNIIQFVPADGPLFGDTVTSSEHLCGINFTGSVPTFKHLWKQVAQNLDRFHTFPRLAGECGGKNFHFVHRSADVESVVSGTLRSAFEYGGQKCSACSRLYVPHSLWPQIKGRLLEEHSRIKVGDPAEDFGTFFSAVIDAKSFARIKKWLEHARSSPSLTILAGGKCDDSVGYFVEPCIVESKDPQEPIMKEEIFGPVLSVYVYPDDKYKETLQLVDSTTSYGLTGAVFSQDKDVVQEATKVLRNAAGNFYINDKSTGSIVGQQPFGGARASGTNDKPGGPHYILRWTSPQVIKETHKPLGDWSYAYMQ
UniProt P29144: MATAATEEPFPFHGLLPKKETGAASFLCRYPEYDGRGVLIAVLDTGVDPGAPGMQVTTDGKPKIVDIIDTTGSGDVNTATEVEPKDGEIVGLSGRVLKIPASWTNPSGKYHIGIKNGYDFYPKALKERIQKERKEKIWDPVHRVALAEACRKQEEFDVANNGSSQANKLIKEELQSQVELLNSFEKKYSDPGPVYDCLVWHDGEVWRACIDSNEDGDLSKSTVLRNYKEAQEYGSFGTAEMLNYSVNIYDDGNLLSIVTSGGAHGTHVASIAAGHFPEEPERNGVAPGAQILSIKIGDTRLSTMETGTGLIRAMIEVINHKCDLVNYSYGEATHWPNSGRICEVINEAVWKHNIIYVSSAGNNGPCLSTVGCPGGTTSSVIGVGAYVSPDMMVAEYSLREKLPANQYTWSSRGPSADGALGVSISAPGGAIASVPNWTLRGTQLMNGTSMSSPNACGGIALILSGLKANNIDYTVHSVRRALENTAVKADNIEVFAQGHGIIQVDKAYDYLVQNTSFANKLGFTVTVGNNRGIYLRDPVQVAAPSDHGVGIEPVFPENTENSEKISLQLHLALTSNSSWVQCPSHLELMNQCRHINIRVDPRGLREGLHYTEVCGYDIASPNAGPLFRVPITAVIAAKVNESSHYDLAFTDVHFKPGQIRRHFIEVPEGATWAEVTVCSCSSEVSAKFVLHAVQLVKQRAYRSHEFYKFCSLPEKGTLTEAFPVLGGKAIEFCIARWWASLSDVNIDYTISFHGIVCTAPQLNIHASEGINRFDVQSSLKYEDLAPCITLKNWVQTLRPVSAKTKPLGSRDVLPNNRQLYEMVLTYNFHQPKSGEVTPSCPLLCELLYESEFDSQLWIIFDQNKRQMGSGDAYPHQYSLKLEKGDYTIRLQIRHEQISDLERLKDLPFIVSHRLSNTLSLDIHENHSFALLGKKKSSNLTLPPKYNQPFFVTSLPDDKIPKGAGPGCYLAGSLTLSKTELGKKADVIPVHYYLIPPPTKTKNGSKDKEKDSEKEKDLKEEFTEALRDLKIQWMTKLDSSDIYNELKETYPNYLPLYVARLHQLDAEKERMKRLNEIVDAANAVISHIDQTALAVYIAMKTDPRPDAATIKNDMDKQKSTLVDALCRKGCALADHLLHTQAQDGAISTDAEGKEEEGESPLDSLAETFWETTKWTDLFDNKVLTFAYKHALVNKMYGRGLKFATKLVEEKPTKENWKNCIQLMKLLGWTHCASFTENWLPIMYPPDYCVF

Compound in the assay: CN[C@@H]1C[C@H]2O[C@@](C)([C@@H]1OC)n1c3ccccc3c3c4c(c5c6ccccc6n2c5c31)C(=O)NC4 [staurosporine]
The assay can be described thus: log2 fold change of tryptic peptide abundance, ligand vs vehicle (limited proteolysis) (log2 ratio); higher = more trypsin-susceptible (destabilized). The settings on record: ligand concentration: 20 uM; sample: K562 cleared lysate; digestion: 4 min, 22 C (HT-PELSA RT4min, Orbitrap Astral).
“EPS15 (peptide sequence: EKNNVEQDLK, peptide start residue: 348) (UniProt P42566)”: the log2 fold change stood at 0.32.
Turning to “LTBR (peptide sequence: AWHLAETEHCGATPSNR, peptide start residue: 409) (UniProt P36941)”, the log2 fold change was determined as 0.152.
On to “NNMT (peptide sequence: MESGFTSK, peptide start residue: 1) (UniProt P40261)”, for which the log2 fold change came to 0.241.
Regarding “RPA3 (peptide sequence: INAGMLAQFIDKPVCFVGRLEK, peptide start residue: 12) (UniProt P35244)”, the log2 fold change was -0.241.
As to “UniProt P36542 (peptide sequence: LTLTFNR, peptide start residue: 271)”, the log2 fold change was 0.17.
The same measure for “MYH9 (peptide sequence: LKNKHEAMITDLEER, peptide start residue: 1021) (UniProt P35579)”: -0.203.
As for “PTPN7 (peptide sequence: EVTLHFLR, peptide start residue: 69) (UniProt P35236)”, the log2 fold change came to 0.0916.
Take “UniProt P38405 (peptide sequence: FQVDKVNFHMFDVGGQRDER, peptide start residue: 855)”: the log2 fold change turned out to be 0.466.
Next, “ACSL1 (peptide sequence: TAEALDKDGWLHTGDIGK, peptide start residue: 526) (UniProt P33121)”: 0.615; “ARL1 (peptide sequence: ILILGLDGAGK, peptide start residue: 20) (UniProt P40616)”: 0.428; “ATP7B (peptide sequence: SLPAQEAVVK, peptide start residue: 137) (UniProt P35670)”: 0.138.
On to “RPL12 (peptide sequence: HSGNITFDEIVNIARQMRHR, peptide start residue: 100) (UniProt P30050)”, for which the log2 fold change worked out at 1.28.
Turning to “DDIT3 (peptide sequence: KVAQLAEENER, peptide start residue: 130) (UniProt P35638)”, the log2 fold change turned out to be 0.231.
For “UniProt P42677 (peptide sequence: DLLHPSPEEEKRK, peptide start residue: 6)”, the log2 fold change is 0.18.
On to “MDH1 (peptide sequence: EVGVYEALKDDSWLK, peptide start residue: 206) (UniProt P40925)”, for which the log2 fold change was -0.495.
For the target “UniProt P38936 (peptide sequence: LYLPTGPR, peptide start residue: 76)”, the log2 fold change was 0.359.
Next, “RPS19 (peptide sequence: KLTPQGQR, peptide start residue: 122) (UniProt P39019)”: 0.21; “AKR1C3 (peptide sequence: SKDIVLVAYSALGSQR, peptide start residue: 208) (UniProt P42330)”: -0.281; “SMARCA1 (peptide sequence: LITDNTVEER, peptide start residue: 622) (UniProt P28370)”: -0.285.
As to “PRPH (peptide sequence: ISVPVHSFASLNIK, peptide start residue: 407) (UniProt P41219)”, the log2 fold change was determined as 0.0907.
“PCGF2 (peptide sequence: SDKTLQDIVYK, peptide start residue: 71) (UniProt P35227)”: the log2 fold change is -1.17.
As to “HPCAL1 (peptide sequence: MPEDESTPEKR, peptide start residue: 138) (UniProt P37235)”, the log2 fold change is -0.134.
Take “PRDX2 (peptide sequence: EGGLGPLNIPLLADVTR, peptide start residue: 93) (UniProt P32119)”: the log2 fold change was 0.348.
Next, “UniProt P36575 (peptide sequence: YGRDDLEVIGLTFRK, peptide start residue: 59)”: 0.0632; “HMOX2 (peptide sequence: YMGDLSGGQVLK, peptide start residue: 157) (UniProt P30519)”: -0.294.
As to “COPB2 (peptide sequence: TRVAHFLEK, peptide start residue: 619) (UniProt P35606)”, the log2 fold change is -0.528.
The same measure for “SRP14 (peptide sequence: EVNKFQMAYSNLLR, peptide start residue: 75) (UniProt P37108)”: 0.294; for “SOAT1 (peptide sequence: LTAEAEELKPFFMK, peptide start residue: 54) (UniProt P35610)”: 0.188; for “HSPA9 (peptide sequence: NTTIPTKK, peptide start residue: 461) (UniProt P38646)”: 0.211.
As for “RPL35 (peptide sequence: KKEELLK, peptide start residue: 13) (UniProt P42766)”, the log2 fold change is 0.0943.
Next, “UniProt P42356 (peptide sequence: ITNVSAIIKPYPK, peptide start residue: 1741)”: -0.416; “ZNF93 (peptide sequence: SHTGEKPYK, peptide start residue: 483) (UniProt P35789)”: -0.398.
For the target “ALDH4A1 (peptide sequence: SSPSLTILAGGK, peptide start residue: 409) (UniProt P30038)”, the log2 fold change was determined as 0.331.
Take “UniProt P41214 (peptide sequence: GSFLEGSEVR, peptide start residue: 403)”: the log2 fold change was -0.315.
With “PPP2R1B (peptide sequence: ELVSDTNQHVK, peptide start residue: 344) (UniProt P30154)”, the log2 fold change is 0.212.
Regarding “TPP2 (peptide sequence: DLKEEFTEALR, peptide start residue: 1016) (UniProt P29144)”, the log2 fold change was -0.309.
For “PHKA1 (peptide sequence: FGTMTYLSK, peptide start residue: 1197) (UniProt P46020)”, the log2 fold change is 0.316.
In the case of “RFC4 (peptide sequence: IVILDEADSMTSAAQAALR, peptide start residue: 146) (UniProt P35249)”, the log2 fold change was 0.363.
As for “CUX1 (peptide sequence: KPSAAPEAGASALPNPPALKK, peptide start residue: 766) (UniProt P39880)”, the log2 fold change was 0.508.
In the case of “RPL22 (peptide sequence: SKITVTSEVPFSK, peptide start residue: 68) (UniProt P35268)”, the log2 fold change was -0.102.

Source of the values: the supplement of paper PMC12819154, “High-throughput peptide-centric local stability assay extends protein–ligand identification to membrane proteins, tissues and bacteria” (Nature Structural & Molecular Biology, 2025).
